Data as given in PubChem BioAssay AID504784 (Drosophila RNAi Screening Center, 2011).
In all, the deposit lists about 17,000 reagents; this is an unselected part of those that have a named target and a result. 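Each column is one replicate's B-score; the combined score over replicates was not deposited, so single values may mislead.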 The numbers tell different reagents against one gene apart. Further read-outs or replicates are left out here.

Screen: 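Search for regulators of lipid droplet storage in oleate-fed fly cells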 (primary screen)
System: Drosophila Kc167 embryonic cells
Knock-down reagent: long dsRNA against Drosophila genes, about 250 ng dsRNA per well
Timing: 4 days
Challenge: cells fed 400 µM oleic acid bound to BSA
Read-out: 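Microscope images give a droplet-to-nucleus area ratio, taken as log and converted to a screen-wide B-score; higher values mean greater lipid storage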
Scale: droplet/nuclear area B-score: higher = more stored lipid (overstorage)

| target | reagent no. | droplet/nuclear area B-score, replicate 1 | droplet/nuclear area B-score, replicate 2 |
| --- | --- | --- | --- |
| CG18609 (GeneID 37158) | 1 | 1.71 | -3.1 |
| vvl (GeneID 38752) | 1 | -0.916 | 0.0642 |
| Schip1 (GeneID 34393) | 1 | 1.47 | 2.46 |
| CG14106 (GeneID 39506) | 1 | -0.733 | -0.261 |
| pcs (GeneID 36674) | 1 | -0.79 | 1.02 |
| CG42675 (GeneID 40722) | 1 | -0.0766 | -0.00318 |
| CG42675 (GeneID 40722) | 2 | 4.06 | 3.2 |
| GstD8 (GeneID 48341) | 1 | 0.899 | 1.31 |
| loopin-1 (GeneID 36847) | 1 | 0.813 | 0.662 |
| CG8036 (GeneID 41027) | 1 | -1.27 | -0.745 |
| sgg (GeneID 31248) | 1 | -0.0752 | 2.28 |
| sgg (GeneID 31248) | 2 | – | 0.57 |
| sgg (GeneID 31248) | 3 | 0.382 | -0.101 |
| GrlHz (GeneID 37648) | 1 | -0.18 | -0.159 |
| Dyrk2 (GeneID 34831) | 1 | -0.428 | -0.255 |
| CG6980 (GeneID 42955) | 1 | 2.54 | -0.0893 |
| CG12446 (GeneID 33147) | 1 | 0.949 | -1.18 |
| Mcr (GeneID 44071) | 1 | -0.02 | 0.644 |
| ppk23 (GeneID 32731) | 1 | 1.36 | -0.0459 |
| Elal (GeneID 42970) | 1 | 0.499 | 1.12 |
| CG31013 (GeneID 326111) | 1 | 1.29 | 0.0275 |
| Cpr78Cb (GeneID 40353) | 1 | -0.624 | -0.5 |
| CG2681 (GeneID 31258) | 1 | -0.118 | 2.71 |
| CG30288 (GeneID 246531) | 1 | -0.259 | -0.0467 |
| CG10936 (GeneID 37000) | 1 | 0.322 | 0.616 |
| CG10936 (GeneID 37000) | 2 | 0.583 | -1.21 |
| CG10936 (GeneID 37000) | 3 | 0.747 | -0.224 |
| CG7692 (GeneID 39934) | 1 | -0.317 | 0.313 |
| CG43894 (GeneID 39464) | 1 | -1.53 | -1.72 |
| Fdx2 (GeneID 38530) | 1 | -1.34 | -2.11 |
| ENGase (GeneID 32726) | 1 | -0.992 | -1.49 |
| ENGase (GeneID 32726) | 2 | 0.363 | 1.52 |
| term (GeneID 47208) | 1 | -0.996 | 0.645 |
| CG10064 (GeneID 38761) | 1 | -0.00272 | 0.433 |
| mIF3 (GeneID 36335) | 1 | 0.962 | -1.83 |
| CG9518 (GeneID 32416) | 1 | -1.06 | 0.00353 |
| CG4282 (GeneID 36825) | 1 | 0.092 | 0.858 |
| IA-2 (GeneID 33277) | 1 | 2.29 | -1.36 |
| IA-2 (GeneID 33277) | 2 | -0.405 | -1.73 |
| IA-2 (GeneID 33277) | 3 | -0.227 | -0.583 |
| zf30C (GeneID 34292) | 1 | -0.43 | -0.707 |
| Doc2 (GeneID 39038) | 1 | -1.53 | -0.277 |
| Obp56g (GeneID 37270) | 1 | -0.265 | 0.222 |
| CycY (GeneID 34593) | 1 | 0.654 | 0.702 |
| Membrin (GeneID 38614) | 1 | -0.718 | 0.0991 |
| Elp5 (GeneID 38287) | 1 | -0.0946 | 0.716 |
| Plap (GeneID 43978) | 1 | -0.413 | -0.497 |
| ms(2)35Ci (GeneID 49529) | 1 | 1.22 | -0.233 |
| CG1690 (GeneID 36004) | 1 | 0.634 | 1.67 |
| myd (GeneID 42303) | 1 | 1.86 | -4.32 |
| myd (GeneID 42303) | 2 | -0.343 | – |
| CG1979 (GeneID 40837) | 1 | -0.0259 | 0.00318 |
| CG34408 (GeneID 31953) | 1 | 1.62 | 0.403 |
| CG34408 (GeneID 31953) | 2 | -0.215 | 6.28 |
| CG34408 (GeneID 31953) | 3 | -0.171 | 0.649 |
| CG3566 (GeneID 31562) | 1 | -1.04 | -0.451 |

Entries above whose gene name starts with I or i:
| target | reagent no. | droplet/nuclear area B-score, replicate 1 | droplet/nuclear area B-score, replicate 2 |
| --- | --- | --- | --- |
| IA-2 (GeneID 33277) | 1 | 2.29 | -1.36 |
| IA-2 (GeneID 33277) | 2 | -0.405 | -1.73 |
| IA-2 (GeneID 33277) | 3 | -0.227 | -0.583 |
